Assay results as given in the supplement of paper PMC10849652.
This is one part of the list. Residues, ends and D or L forms follow the SMILES beside them. *: point of attachment. Cbz = O=C(OCc1ccccc1)*

By UniProt entry, the sequences of proteins in these tests, tags left out. Where a name states a change or a piece, a line headed by the entry shows the natural chain unless it says otherwise.
UniProt Q5T440: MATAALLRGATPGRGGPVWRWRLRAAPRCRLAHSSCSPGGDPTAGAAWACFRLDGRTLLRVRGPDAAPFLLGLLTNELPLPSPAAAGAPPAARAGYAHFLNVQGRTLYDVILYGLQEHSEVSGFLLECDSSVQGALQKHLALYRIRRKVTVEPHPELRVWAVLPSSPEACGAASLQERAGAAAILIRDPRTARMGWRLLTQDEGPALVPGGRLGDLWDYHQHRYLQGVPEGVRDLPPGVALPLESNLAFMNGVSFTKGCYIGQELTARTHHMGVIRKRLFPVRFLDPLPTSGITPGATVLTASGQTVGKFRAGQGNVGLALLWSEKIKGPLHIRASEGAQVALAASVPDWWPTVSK
UniProt Q14103: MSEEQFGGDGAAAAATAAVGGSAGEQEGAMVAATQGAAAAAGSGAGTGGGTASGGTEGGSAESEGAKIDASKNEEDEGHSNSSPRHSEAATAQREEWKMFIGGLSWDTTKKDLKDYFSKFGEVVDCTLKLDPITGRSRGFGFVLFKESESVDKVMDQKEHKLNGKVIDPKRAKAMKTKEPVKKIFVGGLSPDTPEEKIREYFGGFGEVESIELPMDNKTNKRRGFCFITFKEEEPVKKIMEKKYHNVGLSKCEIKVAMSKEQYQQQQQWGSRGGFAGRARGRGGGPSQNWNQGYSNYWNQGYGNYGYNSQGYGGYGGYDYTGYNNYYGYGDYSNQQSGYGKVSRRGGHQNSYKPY
UniProt Q9NX55: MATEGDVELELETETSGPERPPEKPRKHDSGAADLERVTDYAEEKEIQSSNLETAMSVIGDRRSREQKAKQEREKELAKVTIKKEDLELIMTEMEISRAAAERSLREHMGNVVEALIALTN
UniProt O43464: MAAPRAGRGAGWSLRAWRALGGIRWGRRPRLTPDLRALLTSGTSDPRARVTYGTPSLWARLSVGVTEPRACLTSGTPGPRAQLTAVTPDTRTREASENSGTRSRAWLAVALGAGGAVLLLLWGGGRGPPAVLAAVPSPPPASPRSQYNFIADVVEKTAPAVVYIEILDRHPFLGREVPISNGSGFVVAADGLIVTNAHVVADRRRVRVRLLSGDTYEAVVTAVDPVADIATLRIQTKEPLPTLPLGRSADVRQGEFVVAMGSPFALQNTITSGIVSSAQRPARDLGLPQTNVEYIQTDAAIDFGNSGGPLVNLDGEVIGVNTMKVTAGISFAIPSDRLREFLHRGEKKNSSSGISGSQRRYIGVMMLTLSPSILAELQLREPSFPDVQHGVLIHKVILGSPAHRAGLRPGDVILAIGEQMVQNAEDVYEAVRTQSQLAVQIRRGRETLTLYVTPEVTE
UniProt Q6NVY1: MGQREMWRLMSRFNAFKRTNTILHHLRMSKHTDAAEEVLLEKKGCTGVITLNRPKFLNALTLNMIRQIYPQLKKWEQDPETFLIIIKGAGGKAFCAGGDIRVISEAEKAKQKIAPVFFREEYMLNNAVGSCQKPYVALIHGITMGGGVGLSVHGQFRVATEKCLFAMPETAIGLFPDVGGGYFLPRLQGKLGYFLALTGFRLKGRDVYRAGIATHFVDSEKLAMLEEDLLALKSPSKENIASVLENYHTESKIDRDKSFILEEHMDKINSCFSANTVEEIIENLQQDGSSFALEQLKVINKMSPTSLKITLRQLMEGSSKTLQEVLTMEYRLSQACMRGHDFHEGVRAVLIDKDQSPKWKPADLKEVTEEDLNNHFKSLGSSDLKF
UniProt O43719: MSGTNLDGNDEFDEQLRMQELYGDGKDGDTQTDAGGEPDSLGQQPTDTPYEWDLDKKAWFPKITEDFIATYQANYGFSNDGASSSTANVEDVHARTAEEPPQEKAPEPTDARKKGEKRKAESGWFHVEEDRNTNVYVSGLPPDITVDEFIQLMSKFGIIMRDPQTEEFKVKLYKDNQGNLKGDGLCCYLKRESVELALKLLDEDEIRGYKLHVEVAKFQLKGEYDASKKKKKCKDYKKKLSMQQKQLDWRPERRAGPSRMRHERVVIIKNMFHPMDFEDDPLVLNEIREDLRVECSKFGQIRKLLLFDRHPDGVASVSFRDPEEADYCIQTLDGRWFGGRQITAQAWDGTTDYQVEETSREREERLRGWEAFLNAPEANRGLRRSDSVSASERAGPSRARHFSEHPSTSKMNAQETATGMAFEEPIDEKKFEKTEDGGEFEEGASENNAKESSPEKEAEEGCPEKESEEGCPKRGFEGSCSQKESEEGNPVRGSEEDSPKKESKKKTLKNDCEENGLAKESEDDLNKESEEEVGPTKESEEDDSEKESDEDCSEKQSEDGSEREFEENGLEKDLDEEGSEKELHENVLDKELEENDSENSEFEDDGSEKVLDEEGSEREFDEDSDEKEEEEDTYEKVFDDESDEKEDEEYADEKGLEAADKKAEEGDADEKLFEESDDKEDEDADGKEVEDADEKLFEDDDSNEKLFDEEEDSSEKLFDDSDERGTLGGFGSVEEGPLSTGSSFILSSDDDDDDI
UniProt Q9NZL4: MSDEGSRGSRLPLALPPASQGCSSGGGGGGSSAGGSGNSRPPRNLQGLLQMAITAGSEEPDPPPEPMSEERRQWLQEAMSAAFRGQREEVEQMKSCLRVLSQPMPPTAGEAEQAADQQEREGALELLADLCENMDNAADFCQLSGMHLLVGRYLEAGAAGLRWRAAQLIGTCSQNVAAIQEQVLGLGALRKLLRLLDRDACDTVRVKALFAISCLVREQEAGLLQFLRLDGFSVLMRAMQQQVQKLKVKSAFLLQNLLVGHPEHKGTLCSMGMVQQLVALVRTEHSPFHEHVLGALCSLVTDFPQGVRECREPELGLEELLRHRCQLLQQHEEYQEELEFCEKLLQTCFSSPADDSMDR
UniProt O14979: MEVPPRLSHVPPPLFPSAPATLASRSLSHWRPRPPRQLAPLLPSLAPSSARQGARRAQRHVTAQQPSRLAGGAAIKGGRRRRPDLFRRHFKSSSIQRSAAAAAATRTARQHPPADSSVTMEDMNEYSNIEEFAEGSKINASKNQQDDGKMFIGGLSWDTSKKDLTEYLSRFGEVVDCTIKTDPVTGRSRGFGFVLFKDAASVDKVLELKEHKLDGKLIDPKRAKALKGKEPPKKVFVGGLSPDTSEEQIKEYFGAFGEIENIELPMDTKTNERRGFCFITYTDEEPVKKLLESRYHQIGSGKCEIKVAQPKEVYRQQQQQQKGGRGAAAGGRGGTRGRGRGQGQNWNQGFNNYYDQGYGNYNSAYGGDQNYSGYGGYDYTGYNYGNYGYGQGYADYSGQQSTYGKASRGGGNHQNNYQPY
UniProt Q8NBQ5: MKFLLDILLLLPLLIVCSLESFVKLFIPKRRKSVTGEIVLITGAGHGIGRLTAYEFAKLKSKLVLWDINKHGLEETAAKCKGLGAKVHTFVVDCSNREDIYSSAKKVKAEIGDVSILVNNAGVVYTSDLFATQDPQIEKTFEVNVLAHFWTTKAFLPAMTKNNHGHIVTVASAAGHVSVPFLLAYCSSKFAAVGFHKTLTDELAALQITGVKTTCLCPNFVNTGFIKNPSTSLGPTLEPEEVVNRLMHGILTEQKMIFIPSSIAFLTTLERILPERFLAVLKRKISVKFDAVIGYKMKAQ
UniProt P49773: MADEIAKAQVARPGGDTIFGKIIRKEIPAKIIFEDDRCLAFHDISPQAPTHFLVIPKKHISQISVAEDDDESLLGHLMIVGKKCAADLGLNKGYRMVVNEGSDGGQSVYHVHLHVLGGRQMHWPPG
UniProt Q6DN03, whole entry, looked up: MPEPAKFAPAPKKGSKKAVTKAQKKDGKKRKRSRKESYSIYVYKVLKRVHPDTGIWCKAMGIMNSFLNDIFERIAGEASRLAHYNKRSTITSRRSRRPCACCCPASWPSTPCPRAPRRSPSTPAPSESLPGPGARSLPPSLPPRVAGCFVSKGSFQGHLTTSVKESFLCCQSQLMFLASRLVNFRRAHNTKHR
UniProt Q8WVV9: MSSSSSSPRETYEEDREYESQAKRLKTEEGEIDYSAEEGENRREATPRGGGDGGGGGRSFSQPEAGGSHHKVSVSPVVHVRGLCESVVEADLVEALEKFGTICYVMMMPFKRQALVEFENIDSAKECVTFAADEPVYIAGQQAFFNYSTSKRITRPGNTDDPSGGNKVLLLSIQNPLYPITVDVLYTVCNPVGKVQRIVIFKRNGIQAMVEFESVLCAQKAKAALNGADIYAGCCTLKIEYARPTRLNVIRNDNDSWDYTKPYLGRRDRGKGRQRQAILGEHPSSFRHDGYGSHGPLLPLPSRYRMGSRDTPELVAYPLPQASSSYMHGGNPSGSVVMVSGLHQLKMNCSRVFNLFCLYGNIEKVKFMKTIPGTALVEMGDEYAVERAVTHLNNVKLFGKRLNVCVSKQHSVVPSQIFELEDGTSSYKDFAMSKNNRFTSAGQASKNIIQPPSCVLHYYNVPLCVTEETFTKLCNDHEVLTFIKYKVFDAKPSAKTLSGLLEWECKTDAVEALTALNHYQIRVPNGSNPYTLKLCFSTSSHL
UniProt P31937: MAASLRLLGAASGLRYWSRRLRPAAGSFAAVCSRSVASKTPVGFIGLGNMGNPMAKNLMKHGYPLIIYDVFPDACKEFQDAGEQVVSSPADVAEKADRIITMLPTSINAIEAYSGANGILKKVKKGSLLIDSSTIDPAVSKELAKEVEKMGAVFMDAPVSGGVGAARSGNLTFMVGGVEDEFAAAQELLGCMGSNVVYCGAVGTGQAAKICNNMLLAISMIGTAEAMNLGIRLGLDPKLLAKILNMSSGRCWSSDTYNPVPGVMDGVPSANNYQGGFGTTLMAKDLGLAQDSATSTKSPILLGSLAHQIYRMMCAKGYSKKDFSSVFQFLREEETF
UniProt P10809, whole entry, looked up: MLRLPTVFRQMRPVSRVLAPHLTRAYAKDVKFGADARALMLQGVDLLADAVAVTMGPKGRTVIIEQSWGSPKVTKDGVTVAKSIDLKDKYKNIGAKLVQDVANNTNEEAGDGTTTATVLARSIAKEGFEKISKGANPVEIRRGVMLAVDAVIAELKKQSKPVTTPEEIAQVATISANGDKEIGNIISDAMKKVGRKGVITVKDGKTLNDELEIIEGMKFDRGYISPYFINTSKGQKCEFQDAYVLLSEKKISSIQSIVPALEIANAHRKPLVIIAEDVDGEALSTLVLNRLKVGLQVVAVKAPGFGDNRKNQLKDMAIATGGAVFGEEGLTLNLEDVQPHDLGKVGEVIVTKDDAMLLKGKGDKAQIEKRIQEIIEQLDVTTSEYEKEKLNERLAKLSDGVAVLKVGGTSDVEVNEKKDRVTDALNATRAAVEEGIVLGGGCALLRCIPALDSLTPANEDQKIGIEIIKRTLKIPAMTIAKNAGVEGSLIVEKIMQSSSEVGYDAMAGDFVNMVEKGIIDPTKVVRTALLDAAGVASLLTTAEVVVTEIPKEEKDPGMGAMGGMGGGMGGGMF
UniProt P51659: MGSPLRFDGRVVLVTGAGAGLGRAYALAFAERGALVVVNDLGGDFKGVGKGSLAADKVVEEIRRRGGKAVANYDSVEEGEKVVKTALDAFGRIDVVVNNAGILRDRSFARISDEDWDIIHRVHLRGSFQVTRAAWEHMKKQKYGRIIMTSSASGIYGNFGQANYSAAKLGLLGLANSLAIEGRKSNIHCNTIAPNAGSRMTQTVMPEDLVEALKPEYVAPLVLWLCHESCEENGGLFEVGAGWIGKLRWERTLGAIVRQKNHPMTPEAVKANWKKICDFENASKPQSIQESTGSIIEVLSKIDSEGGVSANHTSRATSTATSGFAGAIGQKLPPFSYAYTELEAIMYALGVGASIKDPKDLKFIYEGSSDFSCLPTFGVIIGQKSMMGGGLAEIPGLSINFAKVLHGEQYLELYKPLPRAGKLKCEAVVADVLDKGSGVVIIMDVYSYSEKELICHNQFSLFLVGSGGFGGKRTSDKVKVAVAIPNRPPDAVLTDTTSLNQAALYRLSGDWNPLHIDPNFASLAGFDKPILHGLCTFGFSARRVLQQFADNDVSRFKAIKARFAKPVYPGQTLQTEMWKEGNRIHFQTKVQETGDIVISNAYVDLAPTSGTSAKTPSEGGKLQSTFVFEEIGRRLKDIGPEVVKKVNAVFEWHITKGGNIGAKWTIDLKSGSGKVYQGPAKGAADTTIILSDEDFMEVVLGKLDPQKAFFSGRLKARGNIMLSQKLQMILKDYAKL
UniProt Q0VDF9: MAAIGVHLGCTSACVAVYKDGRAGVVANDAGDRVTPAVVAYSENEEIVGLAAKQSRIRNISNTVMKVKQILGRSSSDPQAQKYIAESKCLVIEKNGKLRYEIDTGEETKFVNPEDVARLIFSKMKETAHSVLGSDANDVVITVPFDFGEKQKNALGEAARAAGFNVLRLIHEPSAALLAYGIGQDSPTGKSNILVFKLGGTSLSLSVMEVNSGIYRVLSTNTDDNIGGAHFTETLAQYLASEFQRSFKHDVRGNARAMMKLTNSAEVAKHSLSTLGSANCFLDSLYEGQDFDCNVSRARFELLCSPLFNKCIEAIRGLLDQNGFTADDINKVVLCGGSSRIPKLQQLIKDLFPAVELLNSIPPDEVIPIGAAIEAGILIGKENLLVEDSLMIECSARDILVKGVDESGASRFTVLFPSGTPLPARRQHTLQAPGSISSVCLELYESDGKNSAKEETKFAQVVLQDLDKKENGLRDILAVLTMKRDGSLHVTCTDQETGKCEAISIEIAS

Tests used:
Experiment in all cases: log2 fold change, soluble protein after heating vs DMSO (PISA); higher = thermal stabilisation; K562 cells, 10 uM, 30 min; active = over 0.2 and 3.5 SD of the protein, either way, in both replicates (recomputed)
IRAK-1-4 Inhibitor I = compound: C1COCCN1CCN2C3=CC=CC=C3N=C2NC(=O)C4=CC(=CC=C4)[N+](=O)[O-] [IRAK-1-4 Inhibitor I]
Procedure, shortened: (§1)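 K562 cells at 2×10^6 cells/mL were treated with 10 μM compound for 30 min. Aliquots were heated for 3 min across 48°C-58°C, pooled, and extracted in PBS with 0.5% NP-40 at 4°C; soluble protein was the supernatant after 21,000xg for 90 min. Soluble protein was quantified by TMTpro 16plex LC-MS/MS with channel sums equalised, and reported as log2 fold change in thermal stability against DMSO controls, with values from duplicates.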

ibrutinib = compound: C=CC(=O)N1CCC[C@@H](n2nc(-c3ccc(Oc4ccccc4)cc3)c3c(N)ncnc32)C1 [ibrutinib]
Procedure, shortened: as §1

[1] = compound: CC(=O)c1cnc2ccc(-c3cc(Cl)c(O)c(Cl)c3)nc2c1N[C@H]1CC[C@H](CN(C)C)CC1
Procedure, shortened: as §1

ralimetinib = compound: CC(C)(C)Cn1c(N)nc2ccc(-c3[nH]c(C(C)(C)C)nc3-c3ccc(F)cc3)nc21 [ralimetinib]
Procedure, shortened: as §1

[2] = compound: CC(C)(O)CC(=O)NCCn1ccc2ncnc(Nc3ccc(Oc4cccc(C(F)(F)F)c4)c(Cl)c3)c21
Procedure, shortened: as §1

[3] = compound: CC(C)C1=C2N=C(C=C(N2N=C1)NCC3=CC=CC=C3)NCCCCCCN
Procedure, shortened: as §1

[4] = compound: CC(C)C[C@@H](C=O)NC(=O)[C@H](CC(C)C)NC(=O)[C@H](CC(C)C)NC(=O)OCc1ccccc1
Procedure, shortened: as §1

pinometostat = compound: CC(C)N(C[C@H]1O[C@@H](n2cnc3c(N)ncnc32)[C@H](O)[C@@H]1O)[C@H]1C[C@@H](CCc2nc3cc(C(C)(C)C)ccc3[nH]2)C1 [pinometostat]
Procedure, shortened: as §1

[5] = compound: CC1=C(C(CC(=O)N1)C2=CC=C(C=C2)C(F)(F)F)C(=O)NC3=C(C=C4C(=C3)C=NN4)F
Procedure, shortened: as §1

[6] = compound: CC1=C(C2=C(C=C1)C(=O)C3=CC=CC=C3N2CCCN)C
Procedure, shortened: as §1

[7] = compound: CC1=C(C=C(C=C1)NC(=O)C2=CC(=CC=C2)C(C)(C)C#N)NC3=CC4=C(C=C3)N=CN(C4=O)C
Procedure, shortened: as §1

[8] = compound: CC1=C(C=C(C=C1)NC(=O)C2=CC(=CC=C2)N(C)C)NC(=O)C3=CC=C(C=C3)O
Procedure, shortened: as §1

[9] = compound: CC1=CC=C(C=C1)SC2=C3C=C(SC3=CN=C2)C(=O)N
Procedure, shortened: as §1

[10] = compound: CC1=NC(=CC=C1)C2=C(N=C(N2)C(C)(C)C)C3=CC4=NC=CN=C4C=C3
Procedure, shortened: as §1

Nexturastat A = compound: CCCCN(Cc1ccc(C(=O)NO)cc1)C(=O)Nc1ccccc1 [Nexturastat A]
Procedure, shortened: as §1

vemurafenib = compound: CCCS(=O)(=O)Nc1ccc(F)c(C(=O)c2c[nH]c3ncc(-c4ccc(Cl)cc4)cc23)c1F [vemurafenib]
Procedure, shortened: as §1

[11] = compound: CCCS(=O)(=O)Nc1ccc(F)c(C(=O)c2c[nH]c3ncc(Cl)cc23)c1F
Procedure, shortened: as §1

[12] = compound: CCCc1cc(C)[nH]c(=O)c1CNC(=O)c1cc(-c2ccnc(N3CCN(C)CC3)c2)cc2c1cnn2C(C)C
Procedure, shortened: as §1

givinostat = compound: CCN(CC)Cc1ccc2cc(COC(=O)Nc3ccc(C(=O)NO)cc3)ccc2c1 [givinostat]
Procedure, shortened: as §1

barasertib = compound: CCN(CCCOc1ccc2c(Nc3cc(CC(=O)Nc4cccc(F)c4)[nH]n3)ncnc2c1)CCOP(=O)(O)O [barasertib]
Procedure, shortened: as §1

Measured: log2 fold change

IBA57 (UniProt Q5T440)
inactive: IRAK-1-4 Inhibitor I 0.084 | ibrutinib -0.035 | [1] -0.031 | ralimetinib -0.047 | [2] -0.004 | [3] -0.027 | [4] 0.084 | pinometostat 0.02 | [5] -0.011 | [6] 0.004 | [7] -0.017 | [8] -0.042 | [9] -0.01 | [10] 0.005 | Nexturastat A -0.095 | vemurafenib 0.038 | [11] 0.004 | [12] -0.03 | givinostat -0.041 | barasertib 0.017

HNRNPD (UniProt Q14103)
inactive: IRAK-1-4 Inhibitor I -0.083 | ibrutinib 0.03 | [1] 0.169 | ralimetinib 0.085 | [2] 0.152 | [3] 0.013 | [4] 0.082 | pinometostat 0.054 | [5] 0 | [6] -0.029 | [7] 0.056 | [8] 0.04 | [9] -0.092 | [10] -0.054 | Nexturastat A 0.099 | vemurafenib -0.053 | [11] -0.028 | [12] 0.035 | givinostat -0.09 | barasertib -0.045

HYPK (UniProt Q9NX55)
inactive: IRAK-1-4 Inhibitor I 0.006 | ibrutinib -0.046 | [1] -0.04 | ralimetinib -0.024 | [2] 0.077 | [3] 0.076 | [4] 0.015 | pinometostat -0.067 | [5] 0.023 | [6] 0.044 | [7] -0.003 | [8] 0.022 | [9] -0.012 | [10] 0.033 | Nexturastat A -0.015 | vemurafenib 0.084 | [11] -0.007 | [12] -0.001 | givinostat -0.011 | barasertib 0.04

HTRA2 (UniProt O43464)
inactive: IRAK-1-4 Inhibitor I -0.004 | ibrutinib 0.019 | [1] 0.034 | ralimetinib -0.025 | [2] -0.034 | [3] 0.041 | [4] 0.037 | pinometostat -0.039 | [5] 0.041 | [6] -0.002 | [7] 0.011 | [8] -0.02 | [9] 0.032 | [10] 0.044 | Nexturastat A -0.046 | vemurafenib -0.006 | [11] -0.022 | [12] -0.048 | givinostat -0.027 | barasertib 0.009

HIBCH (UniProt Q6NVY1)
inactive: IRAK-1-4 Inhibitor I 0.022 | ibrutinib -0.002 | [1] -0.016 | ralimetinib -0.01 | [2] -0.099 | [3] -0.128 | [4] -0.008 | pinometostat -0.029 | [5] -0.01 | [6] 0.035 | [7] 0.041 | [8] -0.036 | [9] -0.035 | [10] 0.042 | Nexturastat A -0.04 | vemurafenib 0.009 | [11] 0.003 | [12] 0.024 | givinostat -0.01 | barasertib 0.009

HTATSF1 (UniProt O43719)
inactive: IRAK-1-4 Inhibitor I -0.089 | ibrutinib -0.088 | [1] -0.042 | ralimetinib -0.035 | [2] -0.068 | [3] -0.298 | [4] 0.04 | pinometostat -0.005 | [5] 0.025 | [6] -0.19 | [7] 0.097 | [8] -0.123 | [9] -0.028 | [10] 0.031 | Nexturastat A 0.051 | vemurafenib 0.041 | [11] -0.026 | [12] -0.056 | givinostat 0.051 | barasertib 0.05

HSPBP1 isoform 3 (UniProt Q9NZL4)
inactive: IRAK-1-4 Inhibitor I -0.028 | ibrutinib -0.022 | [1] 0.068 | ralimetinib 0.026 | [2] -0.072 | [3] -0.181 | [4] -0.08 | pinometostat 0.02 | [5] 0.013 | [6] -0.07 | [7] 0.029 | [8] -0.011 | [9] 0.011 | [10] 0.007 | Nexturastat A -0.02 | vemurafenib 0.086 | [11] 0.095 | [12] -0.004 | givinostat 0.038 | barasertib 0.056

HNRNPDL (UniProt O14979)
inactive: IRAK-1-4 Inhibitor I -0.122 | ibrutinib 0.041 | [1] 0.119 | ralimetinib 0.052 | [2] 0.101 | [3] 0.124 | [4] 0.046 | pinometostat 0.063 | [5] 0.069 | [6] -0.073 | [7] 0.008 | [8] 0.008 | [9] -0.101 | [10] -0.061 | Nexturastat A 0.104 | vemurafenib -0.072 | [11] -0.091 | [12] 0.072 | givinostat -0.069 | barasertib -0.161

HSD17B11 (UniProt Q8NBQ5)
inactive: IRAK-1-4 Inhibitor I 0.001 | ibrutinib -0.019 | [1] 0.001 | ralimetinib -0.097 | [2] 0.048 | [3] 0.101 | [4] -0.055 | pinometostat -0.056 | [5] -0.018 | [6] 0.005 | [7] 0.021 | [8] 0.033 | [9] 0.005 | [10] 0.035 | Nexturastat A -0.058 | vemurafenib 0.028 | [11] -0.006 | [12] 0.008 | givinostat -0.023 | barasertib 0.006

HINT1 (UniProt P49773)
inactive: IRAK-1-4 Inhibitor I 0.022 | ibrutinib 0.041 | [1] 0.02 | ralimetinib -0.074 | [2] -0.109 | [3] 0.045 | [4] -0.002 | pinometostat -0.055 | [5] 0.057 | [6] 0.159 | [7] 0.009 | [8] -0.047 | [9] 0.062 | [10] 0.001 | Nexturastat A -0.091 | vemurafenib -0.021 | [11] -0.025 | [12] -0.032 | givinostat -0.053 | barasertib 0.053

HIST2H2BC (UniProt Q6DN03)
inactive: IRAK-1-4 Inhibitor I -0.033 | ibrutinib 0.19 | [1] -0.04 | ralimetinib 0.166 | [2] 0.006 | [3] -0.093 | [4] 0.17 | pinometostat 0.373 | [5] -0.07 | [6] 0.671 | [7] -0.132 | [8] -0.047 | [9] -0.298 | [10] -0.035 | Nexturastat A 0.727 | vemurafenib -0.252 | [11] 0.2 | [12] 0.324 | givinostat 0.351 | barasertib -0.124

HNRNPLL (UniProt Q8WVV9)
inactive: IRAK-1-4 Inhibitor I -0.108 | ibrutinib 0.12 | [1] -0.303 | ralimetinib -0.018 | [2] 0.027 | [3] -0.264 | [4] -0.007 | pinometostat -0.022 | [5] 0.039 | [6] -0.012 | [7] 0.158 | [8] -0.093 | [9] -0.01 | [10] 0.099 | Nexturastat A 0.028 | vemurafenib 0.051 | [11] 0.127 | [12] 0.01 | givinostat 0.143 | barasertib 0.063

HIBADH (UniProt P31937)
inactive: IRAK-1-4 Inhibitor I 0.012 | ibrutinib 0.011 | [1] -0.015 | ralimetinib 0 | [2] 0.058 | [3] 0.088 | [4] -0.024 | pinometostat 0.016 | [5] -0.018 | [6] -0.04 | [7] 0.004 | [8] 0.019 | [9] 0.006 | [10] 0.002 | Nexturastat A -0.011 | vemurafenib -0.017 | [11] 0 | [12] 0.009 | givinostat -0.009 | barasertib -0.005

Two entries picked at random from those above, as already listed:
HINT1 (UniProt P49773)
inactive: IRAK-1-4 Inhibitor I 0.022 | ibrutinib 0.041 | [1] 0.02 | ralimetinib -0.074 | [2] -0.109 | [3] 0.045 | [4] -0.002 | pinometostat -0.055 | [5] 0.057 | [6] 0.159 | [7] 0.009 | [8] -0.047 | [9] 0.062 | [10] 0.001 | Nexturastat A -0.091 | vemurafenib -0.021 | [11] -0.025 | [12] -0.032 | givinostat -0.053 | barasertib 0.053

HSD17B11 (UniProt Q8NBQ5)
inactive: IRAK-1-4 Inhibitor I 0.001 | ibrutinib -0.019 | [1] 0.001 | ralimetinib -0.097 | [2] 0.048 | [3] 0.101 | [4] -0.055 | pinometostat -0.056 | [5] -0.018 | [6] 0.005 | [7] 0.021 | [8] 0.033 | [9] 0.005 | [10] 0.035 | Nexturastat A -0.058 | vemurafenib 0.028 | [11] -0.006 | [12] 0.008 | givinostat -0.023 | barasertib 0.006

(continued)

HSPD1 (UniProt P10809)
inactive: IRAK-1-4 Inhibitor I 0.052 | ibrutinib -0.006 | [1] 0.017 | ralimetinib -0.038 | [2] 0.041 | [3] 0.021 | [4] -0.011 | pinometostat -0.032 | [5] 0.005 | [6] -0.011 | [7] -0.01 | [8] 0.014 | [9] -0.031 | [10] 0.004 | Nexturastat A -0.022 | vemurafenib -0.028 | [11] -0.076 | [12] -0.008 | givinostat 0.003 | barasertib 0.001

HSD17B4 (UniProt P51659)
inactive: IRAK-1-4 Inhibitor I 0 | ibrutinib 0 | [1] -0.014 | ralimetinib -0.007 | [2] 0.036 | [3] 0.069 | [4] 0.005 | pinometostat 0.002 | [5] -0.006 | [6] 0.037 | [7] 0.032 | [8] 0.018 | [9] -0.007 | [10] -0.003 | Nexturastat A -0.051 | vemurafenib 0.002 | [11] -0.009 | [12] -0.031 | givinostat -0.026 | barasertib 0.004

HSPA14 (UniProt Q0VDF9)
inactive: IRAK-1-4 Inhibitor I -0.086 | ibrutinib -0.059 | [1] -0.035 | ralimetinib 0.05 | [2] -0.046 | [3] -0.213 | [4] 0.076 | pinometostat 0.163 | [5] 0.002 | [6] -0.002 | [7] -0.026 | [8] -0.006 | [9] 0.023 | [10] 0.018 | Nexturastat A 0.175 | vemurafenib 0.01 | [11] 0.05 | [12] 0.054 | givinostat 0.099 | barasertib 0.074
